Measurements reported in PubChem BioAssay AID743454 (Peter MacCallum Cancer Centre, 2014).

- Assay: 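Knock-downs lowering viability or raising caspase 3/7 activity in vorinostat-treated resistant cells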 (primary screen)
- Cell system: human HCT116-VR colon cancer cells, selected for vorinostat resistance
- Knock-down reagent: siRNA pool against human genes, 40 nM siRNA pool
- Timing: vorinostat for 24 h, read-out about 72 h after transfection
- Conditions: vorinostat at 2.5 µM final
- Measurement: 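Two measures, CellTiter-Fluor viability and luminescent caspase 3/7 activity, each as fold change against same-plate mock wells, mean of duplicates, then screen-wide robust z-score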
- Reading the numbers: viability robust z-score: higher = more viable cells than screen typical; caspase robust z-score: higher = more caspase 3/7 activity than screen typical
- Call rule: 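Hits are knock-downs in viability class RV1/RV2 or caspase class CA1/CA2, excluding ones that killed cells in the no-drug cell-count arm; hits then retested with single siRNAs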
Here is an unselected part of about 18,000 deposited reagents. In the full data, 450 (2.5%) are marked active. 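Single biological run; no consistent viability z cut-off exists, so the class columns, not z-scores, define the calls.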 A number with no mark means an inactive call.

target gene,viability hit class,caspase hit class,viability robust z-score,caspase robust z-score
TMPRSS6,no change,no change,1.6,0.21
DDX27,no change,no change,-1.68,-1.29
ANKRD45,no change,no change,0.84,0.26
OR14K1,no change,no change,0,-0.87
NPSR1,no change,no change,-0.81,-1.16
OCM2,no change,no change,0.14,3.04
MSX2,no change,no change,0.18,-0.12
NOTCH2,no change,no change,1.4,0.36
KRT85,no change,no change,0.24,-0.7
RAP1A,no change,no change,-1.97,1.25
GALNT17,no change,no change,0.06,2.84
C3orf62,no change,no change,-1.36,0.13
CYTH3,no change,no change,0,0.36
DPH6,no change,no change,-1.05,-0.2
KCNF1,no change,no change,-1.44,2.17
RNF139,no change,no change,1.28,-0.23
GPR160,no change,no change,0,-0.92
FAM53B,no change,no change,1.08,0.14
NADSYN1,no change,no change,0.5,0.81
NAPSA,no change,no change,0.62,1.76
ARFRP1,no change,no change,-2.13,0.1
PANK2,no change,no change,0.73,3.87
WFDC6,no change,no change,-2.55,1.14
TATDN2,no change,no change,1.02,-0.02
SLC39A3,no change,no change,-0.45,1.31
SELENOM,no change,no change,1.15,2.02
GATA6,no change,no change,-0.46,-0.71
HMGB3,no change,no change,1.5,-0.46
GNS,no change,no change,-0.1,-0.69
RWDD3,no change,no change,0.06,0.94
PRKAR2B,no change,no change,-0.6,-0.14
GATA3,no change,no change,0.26,0.33
PGF,no change,no change,0.12,-0.88
UBA5,no change,no change,0.62,-0.41
GABARAP,no change,no change,0.2,-0.91
RNF44,no change,no change,0.22,2.33
RHD,no change,no change,0.55,0.08
CRYBB1,no change,no change,-0.83,0.7
SALL1,RV2 (reduced viability) (active),no change,-3,-0.19
PRMT7,no change,no change,-0.32,-1.38
MKNK2,no change,no change,-1.08,0.54
UST,no change,no change,-0.16,0.36
TSGA10IP,no change,no change,-0.92,0.64
DTX3,no change,no change,-1.19,4.53
UBXN6,no change,no change,-0.3,1.89
AIFM2,no change (active),CA2 (caspase activation),-2.77,6.22
IFT52,no change,no change,-0.58,0.04
IL10RB,no change,no change,0.1,-0.16
IFT81,no change,no change,-0.3,-0.43
ITPRID1,no change,no change,-0.43,2.27
KRT6C,no change,no change,-0.34,-0.52
NBPF7P,no change,no change,0.86,-0.2
RPS9,no change,no change,0.14,0.06
ZNF260,no change,no change,0.82,-0.13
EOLA1,no change,no change,0.67,-0.06
DCAF17,no change,no change,-1.55,1.45
MELK,no change,no change,0.73,-0.1

In a second layout: results already given.
| target gene | viability hit class | caspase hit class | viability robust z-score | caspase robust z-score |
| --- | --- | --- | --- | --- |
| DDX27 | no change | no change | -1.68 | -1.29 |
| ANKRD45 | no change | no change | 0.84 | 0.26 |
